The values below come from patent publication US20040081647A1.

Chains of the proteins cited; added tags and fusions are not shown. Residues count along the entry.
UniProt P01375, residues 77-233: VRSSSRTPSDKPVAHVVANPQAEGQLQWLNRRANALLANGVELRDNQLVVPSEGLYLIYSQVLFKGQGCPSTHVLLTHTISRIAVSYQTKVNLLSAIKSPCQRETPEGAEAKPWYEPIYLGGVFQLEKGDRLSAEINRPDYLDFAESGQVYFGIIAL

In this experiment the target is human TNFα fusion protein with an N-terminal S-Tag (human) (UniProt P01375). Description: indirect ELISA: sp55 captured on Ni-NTA wells, S-TNF detected with S-protein-HRP.

No constants are given. Whether binding was seen depends on the method and setting. Some results given as binding are weak or reduced against the parent protein; the word gives no strength. Where a sequence is shown, tags or fusion partners need not be part of it.

B1: sp55 address domain (human TNFR-1 ecto-domain residues 30-211) with C-terminal myc and His6 tags (receptor)
chain: DAAQPARRAVRSLVPHLGDREKRDSVCPQGKYIHPQNNSICCTKCHKGTYLYNDCPGPGQDTDCRECESGSFTASENHLRHCLSCSKCRKEMGQVEISSCTVDRDTVCGCRKNQYRHYWSENLFQCFNCSLCLNGTVHLSCQEKQNTVCTCHAGFFLRENECVSCSNCKKSLECTKLCLPQIENVKGTEDSGTTRGGPEQKLISEEDLNSAVDHHHHHH
For B1, the binding result was “binds”.
